Experimental data: patent publication US7498127
These are yes or no findings as the source states them, for the method shown. Some results given as binding are weak or reduced against the parent protein; the word gives no strength.

Biological target: T1, promyelocytic leukemia zinc finger (PLZF) protein found in a human heart cDNA library (human) (UniProt Q05516)
T1 sequence (looked up): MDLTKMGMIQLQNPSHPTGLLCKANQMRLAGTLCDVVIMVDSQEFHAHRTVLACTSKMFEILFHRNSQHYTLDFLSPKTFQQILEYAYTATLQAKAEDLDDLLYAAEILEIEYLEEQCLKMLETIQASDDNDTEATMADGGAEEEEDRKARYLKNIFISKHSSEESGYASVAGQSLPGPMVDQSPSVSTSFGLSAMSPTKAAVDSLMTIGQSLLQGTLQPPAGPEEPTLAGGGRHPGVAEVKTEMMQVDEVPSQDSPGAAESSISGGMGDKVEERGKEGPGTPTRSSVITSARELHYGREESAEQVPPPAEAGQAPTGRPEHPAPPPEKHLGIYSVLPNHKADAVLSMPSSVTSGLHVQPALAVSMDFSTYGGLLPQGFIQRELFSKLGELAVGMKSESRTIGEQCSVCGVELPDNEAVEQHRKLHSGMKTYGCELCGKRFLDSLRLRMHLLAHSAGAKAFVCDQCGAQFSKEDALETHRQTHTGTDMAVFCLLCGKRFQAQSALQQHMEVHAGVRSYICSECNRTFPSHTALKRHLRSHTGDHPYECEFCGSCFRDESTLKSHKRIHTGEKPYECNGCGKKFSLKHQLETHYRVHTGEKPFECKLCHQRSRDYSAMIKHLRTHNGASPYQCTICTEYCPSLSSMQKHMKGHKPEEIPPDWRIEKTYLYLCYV
Assay: yeast two-hybrid screen of a human heart cDNA library (Clontech system), HB-EGF domain as bait

- binding: binds
B1: intracellular domain (185-208aa) of the HB-EGF (peptide)
chain: RYHRRGGYDVENEEKVKLGMTNSH
